Source: PubChem BioAssay AID2685 (National Center for Advancing Translational Sciences (NCATS), 2010)
Some of the results follow. Shown are side measurements of this screen, not its main read-out; they come without a call. The list favours compounds with an active or inconclusive main result. Words in brackets tell the shape of the fitted curve; partial curves, single points and poor fits give uncertain potencies.

Assay: qHTS Assay for Lipid Storage Modulators in Drosophila S3 Cells;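 for cell number change: cells counted by Cell Tracker Red CMTPX staining in the red channel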
Conditions: BODIPY lipid droplet fluorescence, 18-24 h; for cell number change: measured here: cell count max response, cells fed with added oleic acid
Procedure, shortened: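 Laser-scanning cytometry quantifies lipid droplet accumulation (500–530 nm total intensity; droplet/cell object ratio) in oleic acid-fed (400 uM added) Drosophila S3 cells treated with a concentration series. 20 uM Triacsin C defined 100% inhibition.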

[1] = measured here: cell number channel AC50, cells fed with added oleic acid
[2] = measured here: lipid fluorescence (Fed channel) AC50, cells fed with added oleic acid

Row | SMILES | cell number change [%] | AC50 [1] | AC50 [2]
1 | Cc1ccc(NC(=O)N2CCCCCC2)c(C)c1 | -26.2 |  | 
2 | O=C(c1ccco1)N1CCN(S(=O)(=O)c2ccc(S(=O)(=O)NC3CC3)cc2)CC1 | -30.7 | 14.6 µM [falling, single point] | 4.11 µM [falling, partial curve]
3 | CC(C)c1nc2sc3c(NCc4ccccc4)ncnc3c2c2c1COC(C)(C)C2 | 25.4 |  | 2.59 µM [rising, partial curve]
4 | O=C(O)CNC(=O)CC1S/C(=N/N=C/c2ccccc2O)NC1=O (stereo unspecified) | 11.4 |  | 0.259 µM [rising, full curve, poor fit]
5 | CCN1CCc2c(sc(NC(=O)c3ccc(S(=O)(=O)N(CC)c4ccccc4)cc3)c2C(N)=O)C1 | 82.4 | 32.6 µM [rising, single point] | 
6 | CCOC(=O)c1nn(-c2ccccc2)c(C(=O)OCC)c1N | -10.7 |  | 9.2 µM [rising, partial curve]
7 | NC(=O)C1CCN(C(=O)c2ccc3nc(-c4ccccc4)c(-c4ccccc4)nc3c2)CC1 | -5.42 |  | 2.06 µM [falling, partial curve]
8 | O=C(N/C(=C\c1ccco1)C(=O)N1CCCC(CO)C1)c1ccccc1 (stereo unspecified) | 14.5 |  | 3.55 µM [falling, full curve, poor fit]
9 | O=C(CN1CCN(Cc2ccccc2)CC1)Nc1ccccc1 | -4.19 |  | 0.13 µM [rising, full curve, poor fit]
10 | O=C(NC1CCCc2ccccc21)c1cn2ccccc2n1 (stereo unspecified) | 24.7 |  | 
11 | O=C(O)c1ccc(S(=O)(=O)N2CCCc3ccccc32)cc1 | -4.96 |  | 
12 | COc1ccc(Nc2ncnc3nc[nH]c23)cc1OC |  |  | 2.91 µM [falling, single point]
13 | Cc1cccc(-c2noc(CN(C)C(=O)c3ccco3)n2)c1 | -15.8 |  | 
14 | CCN(CC)c1ccc(S(=O)(=O)N2CCCCC2)cc1NC(=O)C1=COCCO1 | 50 | 6.51 µM [falling, single point] | 
15 | Cn1c(=O)c2[nH]c(-c3ccccc3Cl)c(O)c2n(C)c1=O | 1.74 |  | 6.51 µM [falling, single point]
16 | COc1cc(NC(=O)c2ccccc2F)c(OC)cc1NC(=O)CN1CCCCC1 | 8.75 |  | 0.116 µM [rising, single point]
17 | CCc1ccc(-c2ccc(SCC(=O)Nc3nnc(C)s3)nn2)cc1 | -24.8 |  | 5.8 µM [falling, single point]
18 | COC(=O)c1ccc(Cc2ccccc2)o1 |  |  | 0.651 µM [falling, full curve, poor fit]
19 | Cc1cc(C)c(NC(=O)CSc2nc3c(c(=O)n2C)SC(C)C3)c(C)c1 (stereo unspecified) |  |  | 0.0517 µM [rising, full curve]
20 | O=C1c2ccccc2C(=O)c2c1cccc2N1CCN(CCO)CC1 | -36.4 | 1.3 µM [falling, full curve] | 3.26 µM [falling, full curve, poor fit]

Row | SMILES | cell number change [%] | AC50 [1] | AC50 [2]
21 | O=C(CCCc1ccccc1)Nc1cccc2c1CCCC2 | 30.2 |  | 
22 | O=[N+]([O-])c1ccc(N/N=C2\CC3CC=CC23)c([N+](=O)[O-])c1 (stereo unspecified) | 4.92 |  | 
23 | Cc1ccc2occ(/C=N/O)c(=O)c2c1 | -7.03 | 0.92 µM [falling, full curve, poor fit] | 2.59 µM [falling, partial curve]
24 | Cc1ccc(/C=N/Nc2nnc(Cc3ccccc3)c(=O)[nH]2)o1 | 11.9 |  | 
25 | CCCN(CC(=O)Nc1ccccc1OC)C(=O)c1ccc2[nH]c3c(c2c1)CC(C)CC3 (stereo unspecified) | -11 |  | 6.51 µM [falling, full curve, poor fit]
26 | O=C(NCc1cccnc1)c1ccc(-c2ccccc2[N+](=O)[O-])o1 | 52.6 | 3.66 µM [rising, partial curve] | 23.1 µM [rising, single point]
27 | CN(C(=O)CSc1nc2ccccc2n1C)C1CCS(=O)(=O)C1 (stereo unspecified) | 4.2 | 0.58 µM [falling, full curve] | 
28 | CC(C)(C)S(=O)(=O)c1cnc2c(-c3ccsc3)cnn2c1N | -2.09 | 0.164 µM [falling, full curve, poor fit] | 
29 | O=C(Nc1ccc2oc(-c3ccccc3F)nc2c1)c1ccco1 | 18.6 | 6.51 µM [rising, partial curve, poor fit] | 6.51 µM [rising, partial curve, poor fit]
30 | Nc1nc(N)nc(-c2cc(F)ccc2O)n1 | 6.73 |  | 0.0103 µM [rising, full curve, poor fit]
31 | CCN(CC(=O)Nc1ccccc1C(F)(F)F)C(=O)CCc1ccccc1 | 8.97 | 0.82 µM [rising, single point] | 0.291 µM [falling, partial curve]
32 | Cc1ccc(NC(=O)C2CCN(S(=O)(=O)c3ccc4c(c3)CCCC(=O)N4)CC2)cc1N(C)C | -18.3 |  | 23.1 µM [rising, single point]
33 | O=C(CCn1ccc2ccccc21)Nc1ccc(N2CCOCC2)cc1 | 42.6 | 5.17 µM [rising, single point] | 1.3 µM [rising, full curve]
34 | CN(C)C(=O)[C@H]1C[C@H]1[C@@H](O)[C@H](CO)NC(=O)[C@H](COCc1ccccc1)NC(=O)OC(C)(C)C | -0.971 | 6.51 µM [falling, single point] | 
35 | CCn1c(C)c(C)c2cc(C(=O)NCCN3CCCCCC3)ccc21 | -7.65 |  | 6.51 µM [rising, single point]
36 | COc1ccc(C)cc1-n1nnnc1SCC(=O)NC(=O)NCc1ccco1 |  | 0.517 µM [rising, partial curve] | 
37 | O=C(CSc1ccc(F)cc1)Nc1ccccc1Br | -20.3 |  | 
38 | COc1ccc(OC)c(NC(=O)C2CCN(S(=O)(=O)c3ccc4c(c3)CC(C)N4C(C)=O)CC2)c1 (stereo unspecified) | -21.1 |  | 
39 | O=C(CSc1nnc(CNC(=O)c2c(F)cccc2Cl)o1)NCCc1ccccc1 | 11.6 |  | 5.17 µM [rising, single point]
40 | CC(=O)CC(=O)Nc1ccccc1NC(C)=O | -31.4 | 0.058 µM [falling, full curve, poor fit] | 0.058 µM [falling, full curve]

Row | SMILES | cell number change [%] | AC50 [1] | AC50 [2]
41 | CCOc1cccc(OCCOCCNC(C)(C)C)c1 | -21.5 |  | 29.1 µM [falling, single point]
42 | CC1(C)NC(=O)N(CCOCCOc2cccc(Oc3ccccc3)c2)C1=O | -22.4 |  | 
43 | Cc1cccc(-c2cccc(NC(=O)C3CCCN(C(=O)c4csc(C)n4)C3)c2)c1 (stereo unspecified) | -40.4 | 13 µM [falling, partial curve, poor fit] | 13 µM [falling, partial curve]
44 | COc1ccccc1NC(=O)NC1CC(=O)N(c2ccc3c(c2)OCCO3)C1 (stereo unspecified) | -69.5 | 23.1 µM [falling, single point] | 18.4 µM [falling, single point]
45 | Cc1cc(C)cc(OCC(=O)N/N=C/c2ccncc2)c1 | 5.93 |  | 0.461 µM [rising, full curve, poor fit]
46 | COCCn1c(C(F)(F)F)ccc(NC(=O)c2ccccc2)c1=O |  |  | 11.6 µM [falling, single point]
47 | O=C(Nc1cc2c3c(c1)CC(=O)N3CCC2)c1ccc(F)cc1 | 41.8 | 13 µM [rising, partial curve] | 
48 | Cc1cc(=O)c(C(=O)O)nn1-c1ccccc1 | -36.1 | 29.1 µM [falling, single point] | 20.6 µM [falling, single point]
49 | O=C(O)CSc1nnc(-c2ccccc2Br)n1-c1cccc(C(F)(F)F)c1 | -32.5 | 0.231 µM [falling, full curve, poor fit] | 29.1 µM [falling, single point]
50 | O=C(CNC(=O)c1cc(Cl)nc2ccccc12)Nc1ccccc1Br | 0.134 |  | 
51 | CCCC[n+]1ccc(-c2nc3ccc([N+](=O)[O-])cc3[nH]2)cc1 |  | 0.00461 µM [rising, full curve, poor fit] | 
52 | CN1CCN(c2nc(-c3ccccc3)c3cc(Cl)ccc3n2)CC1 | 15.7 |  | 0.731 µM [rising, full curve, poor fit]
53 | CCOc1cc(/C=C2\N=C(SC(C)C(N)=O)N(c3ccc(OC(F)F)cc3)C2=O)ccc1O (stereo unspecified) | -23.4 |  | 29.1 µM [falling, single point]
54 | Cc1ccc(C(=O)Nc2nc3ccccc3n2CCN2CCCC2)cc1 | 3.56 |  | 29.1 µM [rising, single point]
55 | Cc1ccc(-c2cc(C(=O)N3CCc4ccccc4C3)no2)cc1 | 1.49 |  | 6.51 µM [falling, single point]
56 | COc1ccc(NC(=O)CNc2cc(C)ccc2C)cc1S(=O)(=O)N1CCOCC1 | 4.19 |  | 4.11 µM [rising, single point]
57 | CCCCNC(=O)Nc1ccccc1C(=O)Nc1ccc(OC)cc1 | 43.5 | 2.31 µM [rising, full curve] | 16.4 µM [rising, partial curve]
58 | O=[N+]([O-])c1ccc(NC(=S)NCCc2ccccc2)cc1 | -62.1 | 11.6 µM [falling, partial curve] | 11.6 µM [falling, partial curve]
59 | COc1cccc(-c2nc(CS(=O)(=O)CC(=O)Nc3ccc(F)cc3F)c(C)o2)c1 |  |  | 25.9 µM [rising, partial curve]
60 | C1CCC(CNc2c3c(nc4nnnn24)CCCC3)CC1 | -18.9 |  | 1.3 µM [rising, full curve, poor fit]

Not a retest: entries from further up.
Row | SMILES | cell number change [%] | AC50 [1] | AC50 [2]
44 | COc1ccccc1NC(=O)NC1CC(=O)N(c2ccc3c(c2)OCCO3)C1 (stereo unspecified) | -69.5 | 23.1 µM [falling, single point] | 18.4 µM [falling, single point]
45 | Cc1cc(C)cc(OCC(=O)N/N=C/c2ccncc2)c1 | 5.93 |  | 0.461 µM [rising, full curve, poor fit]
46 | COCCn1c(C(F)(F)F)ccc(NC(=O)c2ccccc2)c1=O |  |  | 11.6 µM [falling, single point]
